Results are given in words; binding and its absence hold for the method and conditions named. Binding seen in cells or lysates may run through a third protein. Some results given as binding are weak or reduced against the parent protein; the word gives no strength.

Chains of the proteins cited; added tags and fusions are not shown.
UniProt P27695: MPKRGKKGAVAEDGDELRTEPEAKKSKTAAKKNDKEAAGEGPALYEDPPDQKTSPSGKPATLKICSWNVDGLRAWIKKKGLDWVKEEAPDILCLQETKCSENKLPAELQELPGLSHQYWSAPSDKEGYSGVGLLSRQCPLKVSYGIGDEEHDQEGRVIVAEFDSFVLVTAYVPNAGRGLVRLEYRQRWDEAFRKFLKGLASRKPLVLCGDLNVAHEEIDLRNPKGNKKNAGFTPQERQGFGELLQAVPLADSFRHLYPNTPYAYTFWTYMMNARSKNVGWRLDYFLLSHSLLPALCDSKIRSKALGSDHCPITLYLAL
UniProt Q14872: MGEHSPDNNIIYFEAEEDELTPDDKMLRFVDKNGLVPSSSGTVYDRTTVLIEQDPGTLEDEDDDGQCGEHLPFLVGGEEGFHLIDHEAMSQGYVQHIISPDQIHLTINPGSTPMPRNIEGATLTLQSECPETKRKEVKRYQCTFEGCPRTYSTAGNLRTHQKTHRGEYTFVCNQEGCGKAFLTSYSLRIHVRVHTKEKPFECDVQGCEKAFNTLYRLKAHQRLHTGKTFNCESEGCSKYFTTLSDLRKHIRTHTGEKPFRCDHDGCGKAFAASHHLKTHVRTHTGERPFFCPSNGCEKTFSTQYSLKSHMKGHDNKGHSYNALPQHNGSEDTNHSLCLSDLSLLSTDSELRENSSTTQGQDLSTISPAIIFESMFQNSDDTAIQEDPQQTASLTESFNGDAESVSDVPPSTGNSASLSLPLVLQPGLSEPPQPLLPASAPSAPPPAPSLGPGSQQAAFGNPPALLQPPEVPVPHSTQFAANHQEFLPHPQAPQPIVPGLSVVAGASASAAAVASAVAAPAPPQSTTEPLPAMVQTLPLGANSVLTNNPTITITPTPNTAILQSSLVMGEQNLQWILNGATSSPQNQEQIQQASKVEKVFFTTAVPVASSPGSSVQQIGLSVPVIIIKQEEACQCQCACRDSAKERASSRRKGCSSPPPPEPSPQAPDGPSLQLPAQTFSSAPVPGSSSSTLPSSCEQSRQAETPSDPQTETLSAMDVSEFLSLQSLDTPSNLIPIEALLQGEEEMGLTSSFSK

The record followed here is paper PMC8511627.

For this test, the target named is apurinic apyrimidinic endonuclease/redox effector factor 1 (APE/Ref-1) (human (all cell lines of the paper are human; the cells of the co-IP are not named)) (UniProt P27695). The test can be described thus: co-IP; co-immunoprecipitation 'with different treatments'; cells, precipitating antibody and buffer not told.

For the substance “Metal-regulatory transcription factor-1 (MTF-1) (from UniProt Q14872 1-753)”, the binding entry is listed as “binds”.
